Reference: US20220098304A1
Where a chain is given by its changes, count along the chain named. These are yes or no findings as the source states them, for the method shown. Some results given as binding are weak or reduced against the parent protein; the word gives no strength.

By UniProt entry, the sequences of proteins in these tests, tags left out. Residues count along the entry.
UniProt Q15116, residues 25-167: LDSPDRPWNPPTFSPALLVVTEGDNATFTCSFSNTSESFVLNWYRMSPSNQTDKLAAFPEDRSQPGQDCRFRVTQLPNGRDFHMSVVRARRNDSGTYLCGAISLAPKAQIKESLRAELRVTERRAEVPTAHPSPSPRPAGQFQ

Biological target: Human PD-1-His protein (Cat. #10377H08H, Sino Biological) (human) (UniProt Q15116)
Assay: SPR (Biacore), Table 16

B1: Hu32a-15.IgG4AA (antibody, V domains shown)
VH: EVQLVQSGAEVKKPGSSVKVSCKASGGTFSDYEIHWVRQAPGQGLEWMGLFDPETGGIVYNQKFKGRVTITADKSTSTAYMELSSLRSEDTAVYYCAREGYNRDWYFDVWGQGTTVTVSS
VL: DIVMTQTPLSLPVTPGEPASISCRSSQSLVHSTGNTYLEWYLQKPGQSPQLLIYKVSNRFSGVPDRFSGSGSGTDFTLKISRVEAEDVGVYYCFQGSHVPYTFGGGTKVEIKR
  binding: binds

B2: Hu32a-29.IgG4AA (antibody, V domains shown)
VH: B1 VH with G27F, I70L, A97T
VL: B1 VL
  binding: binds

B3: Hu32a-43.IgG4AA (antibody, V domains shown)
VH: B1 VH with G26D, G27F, I70L, A97T
VL: B1 VL
  binding: binds

B4: Hu32a-57.IgG4AA (antibody, V domains shown)
VH: B1 VH with G27F, M48I, V68A, I70L, L83F, A97T
VL: B1 VL
  binding: binds

B5: Hu32a-71.IgG4AA (antibody, V domains shown)
VH: B1 VH with G26D, G27F, S30T, M48I, V68A, I70L, L83F, A97T
VL: B1 VL
  binding: binds
